Experimental data: paper doi:10.1101/2024.07.09.602823
Results are given in words; binding and its absence hold for the method and conditions named. In cells and extracts the contact can be indirect. Some results given as binding are weak or reduced against the parent protein; the word gives no strength.

Chains of the proteins cited; added tags and fusions are not shown.
UniProt P27986: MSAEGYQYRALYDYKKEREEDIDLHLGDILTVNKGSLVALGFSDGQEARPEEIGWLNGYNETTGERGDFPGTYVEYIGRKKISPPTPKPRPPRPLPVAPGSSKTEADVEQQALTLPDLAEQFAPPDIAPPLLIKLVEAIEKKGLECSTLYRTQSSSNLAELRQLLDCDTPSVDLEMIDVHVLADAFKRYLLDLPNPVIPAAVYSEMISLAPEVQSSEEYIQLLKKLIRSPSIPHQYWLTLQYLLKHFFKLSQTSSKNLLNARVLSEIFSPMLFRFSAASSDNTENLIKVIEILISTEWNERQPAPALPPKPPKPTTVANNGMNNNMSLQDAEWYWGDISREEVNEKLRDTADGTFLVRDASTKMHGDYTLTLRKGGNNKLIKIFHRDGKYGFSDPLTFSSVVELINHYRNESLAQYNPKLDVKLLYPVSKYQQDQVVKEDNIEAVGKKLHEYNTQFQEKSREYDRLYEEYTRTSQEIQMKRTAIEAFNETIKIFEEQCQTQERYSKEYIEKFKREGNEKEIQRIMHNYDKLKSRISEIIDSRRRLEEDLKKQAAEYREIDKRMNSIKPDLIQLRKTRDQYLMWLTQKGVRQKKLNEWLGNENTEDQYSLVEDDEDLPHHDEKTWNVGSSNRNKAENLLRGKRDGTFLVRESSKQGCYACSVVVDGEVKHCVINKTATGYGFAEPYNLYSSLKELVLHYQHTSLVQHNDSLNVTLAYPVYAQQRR
UniProt Q96B97: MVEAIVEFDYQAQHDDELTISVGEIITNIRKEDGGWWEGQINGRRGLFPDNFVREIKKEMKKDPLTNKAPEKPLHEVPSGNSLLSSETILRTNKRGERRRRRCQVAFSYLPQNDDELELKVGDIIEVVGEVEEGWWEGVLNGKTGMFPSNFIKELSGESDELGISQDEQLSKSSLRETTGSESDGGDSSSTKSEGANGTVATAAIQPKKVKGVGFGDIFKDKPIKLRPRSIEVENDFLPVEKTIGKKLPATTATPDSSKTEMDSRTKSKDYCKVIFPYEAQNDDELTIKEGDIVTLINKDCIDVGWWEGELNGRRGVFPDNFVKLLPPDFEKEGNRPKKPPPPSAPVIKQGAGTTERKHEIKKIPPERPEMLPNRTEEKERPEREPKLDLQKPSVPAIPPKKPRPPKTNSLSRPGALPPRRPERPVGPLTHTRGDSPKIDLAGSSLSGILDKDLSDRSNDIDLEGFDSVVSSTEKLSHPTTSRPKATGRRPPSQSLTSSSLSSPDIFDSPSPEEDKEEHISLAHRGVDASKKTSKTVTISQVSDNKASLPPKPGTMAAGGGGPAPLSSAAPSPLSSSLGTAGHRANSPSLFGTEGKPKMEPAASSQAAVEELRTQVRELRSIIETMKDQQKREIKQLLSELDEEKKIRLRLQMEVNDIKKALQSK

What was measured:
[1] = biological target: T1, Septin6 (human (endogenous in MDA-MB-231)) (UniProt Q14141); assay: co-IP
T1 sequence: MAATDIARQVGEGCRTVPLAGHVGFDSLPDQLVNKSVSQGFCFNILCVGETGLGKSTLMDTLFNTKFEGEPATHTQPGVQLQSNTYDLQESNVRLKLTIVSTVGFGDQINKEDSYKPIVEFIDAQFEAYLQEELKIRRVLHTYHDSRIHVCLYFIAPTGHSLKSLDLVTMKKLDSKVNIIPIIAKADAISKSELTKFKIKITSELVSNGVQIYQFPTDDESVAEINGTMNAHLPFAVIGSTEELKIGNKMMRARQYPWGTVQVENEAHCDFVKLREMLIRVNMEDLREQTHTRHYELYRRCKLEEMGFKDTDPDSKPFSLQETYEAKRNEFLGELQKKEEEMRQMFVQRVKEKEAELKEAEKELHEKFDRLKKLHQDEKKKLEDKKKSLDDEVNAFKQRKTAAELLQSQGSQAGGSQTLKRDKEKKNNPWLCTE

PIK3R1-GFP = PIK3R1-GFP (UniProt P27986); assay: co-IP

Substance: WT-SH3KBP1-Flag (from UniProt Q96B97 1-665)
- binding [1]: binds
- binding (PIK3R1-GFP): binds
